The record followed here is article PMC7255037.

Amino acid sequences for entries named in this document (tags omitted).
UniProt P09874: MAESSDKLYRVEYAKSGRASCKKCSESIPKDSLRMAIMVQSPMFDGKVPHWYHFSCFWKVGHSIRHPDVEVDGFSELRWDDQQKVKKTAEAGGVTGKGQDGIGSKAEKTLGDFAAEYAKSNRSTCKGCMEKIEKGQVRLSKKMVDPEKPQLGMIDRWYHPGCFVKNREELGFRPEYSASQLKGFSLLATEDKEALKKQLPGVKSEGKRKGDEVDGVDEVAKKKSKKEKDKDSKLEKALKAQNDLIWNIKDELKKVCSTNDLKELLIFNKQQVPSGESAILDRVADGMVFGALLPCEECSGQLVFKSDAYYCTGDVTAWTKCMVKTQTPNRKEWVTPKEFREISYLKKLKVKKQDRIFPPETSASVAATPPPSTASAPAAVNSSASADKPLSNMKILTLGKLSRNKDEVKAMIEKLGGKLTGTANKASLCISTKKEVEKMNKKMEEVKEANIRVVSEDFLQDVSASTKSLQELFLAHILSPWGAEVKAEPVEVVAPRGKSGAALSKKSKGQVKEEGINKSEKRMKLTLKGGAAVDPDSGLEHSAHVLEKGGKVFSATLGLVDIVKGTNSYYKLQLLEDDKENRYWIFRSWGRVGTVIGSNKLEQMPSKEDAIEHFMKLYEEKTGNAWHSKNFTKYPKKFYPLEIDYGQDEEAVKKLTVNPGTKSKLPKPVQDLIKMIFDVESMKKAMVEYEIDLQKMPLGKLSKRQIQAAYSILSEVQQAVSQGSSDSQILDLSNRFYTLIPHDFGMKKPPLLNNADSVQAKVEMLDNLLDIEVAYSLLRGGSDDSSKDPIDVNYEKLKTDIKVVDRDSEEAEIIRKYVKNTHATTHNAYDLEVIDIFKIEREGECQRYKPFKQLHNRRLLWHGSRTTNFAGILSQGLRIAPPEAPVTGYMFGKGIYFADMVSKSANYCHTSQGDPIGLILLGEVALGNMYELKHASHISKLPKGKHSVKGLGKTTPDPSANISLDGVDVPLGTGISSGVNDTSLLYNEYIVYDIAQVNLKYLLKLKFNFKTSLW
UniProt P40763: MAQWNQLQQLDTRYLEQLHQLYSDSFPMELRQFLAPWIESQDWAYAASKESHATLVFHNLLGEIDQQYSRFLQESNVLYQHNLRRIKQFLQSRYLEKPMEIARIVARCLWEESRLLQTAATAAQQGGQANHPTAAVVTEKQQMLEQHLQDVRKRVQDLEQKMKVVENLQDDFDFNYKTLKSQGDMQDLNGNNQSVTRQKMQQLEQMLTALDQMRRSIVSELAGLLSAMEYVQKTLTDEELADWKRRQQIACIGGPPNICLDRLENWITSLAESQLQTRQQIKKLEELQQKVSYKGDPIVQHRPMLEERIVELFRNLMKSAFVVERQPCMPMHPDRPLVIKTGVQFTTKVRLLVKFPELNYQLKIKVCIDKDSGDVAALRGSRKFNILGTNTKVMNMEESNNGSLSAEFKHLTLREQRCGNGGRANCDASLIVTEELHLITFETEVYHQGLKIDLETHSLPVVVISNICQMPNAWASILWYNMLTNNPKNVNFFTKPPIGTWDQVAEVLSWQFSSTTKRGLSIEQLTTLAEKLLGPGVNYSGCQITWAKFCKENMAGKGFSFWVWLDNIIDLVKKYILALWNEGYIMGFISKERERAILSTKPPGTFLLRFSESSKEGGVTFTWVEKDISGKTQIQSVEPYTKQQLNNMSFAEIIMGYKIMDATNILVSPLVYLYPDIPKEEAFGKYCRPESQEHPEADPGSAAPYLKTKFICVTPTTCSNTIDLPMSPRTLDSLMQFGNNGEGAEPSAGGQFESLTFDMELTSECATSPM

No constants are given. Whether binding was seen depends on the method and setting. Binding seen in cells or lysates may run through a third protein. Some binding calls cover weakened binding; strength is not graded here.

The target in the test is PARP1 (Poly ADP-ribose polymerase 1) (human (endogenous in Huh7)) (UniProt P09874). Kind of test: co-IP; endogenous proteins in Huh7 cell lysate; lysis buffer 50mM Tris-HCl pH 8.0, 150mM NaCl, 5mM EDTA, 0.5% Nonidet P-40; indicated antibodies with protein A/G agarose beads overnight at 4 °C; immunoprecipitation in both directions, then immunoblot; for RNF146 and PARP1 also in TLR9-overexpressing cells (interaction enhanced) and with RNF146 siRNA (interaction reduced).

As for “STAT3 (Signal transducer and activator of transcription 3) (from UniProt P40763 1-770)”, the binding result was “binds”.
